In patent US20200003760A1, “IN-VITRO METHODS FOR CLASSIFYING DRUGS ACCORDING TO THEIR POTENTIAL TO CAUSE LIVER CELL INJURY” (Board of Trustees of Michigan State University, priority 2018, published 2020):
Where two headings read alike, the source gives them in different places.

System: HepG2 cells
Assay: Drug/cytokine-induced cytotoxicity (% LDH release) concentration-response in HepG2 cells
Format: cell-based, human
Conditions: for Slops: 0 = no significant increase, drug alone (VEH); for Slope IFN: with IFN 10 ng/ml; for Slope TNF: with TNF 10 ng/ml
[1] = categorical variable for quotients, drug/TNF versus drug/VEH
[2] = slope of four-parameter logistic fit, negative = increasing
[3] = slope of four-parameter logistic fit, negative = increasing, with TNF and IFN

Row | Structure (SMILES) | Q [1] | Slops [2] | Slope IFN [2] | Slope TNF [2] | Slope TNF/IFN [3] | Q | Slope TNF/IFN
1 | CC(=O)Oc1ccccc1C(=O)O [Aspirin] | 0 (0 if Delta VEH and/or Delta cytokine is <10% LDH) | 0 | 3.013 | 0 | 0 | – | –
2 | CC[C@H]1OC(=O)[C@H](C)[C@@H](O[C@H]2C[C@@](C)(OC)[C@@H](O)[C@H](C)O2)[C@H](C)[C@@H](O[C@@H]2O[C@H](C)C[C@H](N(C)C)[C@H]2O)[C@](C)(O)C[C@@H](C)CN(C)[C@H](C)[C@@H](O)[C@]1(C)O [Azithromycin] | 0 (0 if Delta VEH and/or Delta cytokine is <10% LDH) | 0 | 0 | 0 | −1.8 | – | –
3 | Nc1c(CC(=O)O)cccc1C(=O)c1ccc(Br)cc1 [Bromfenac] | 0 (0 if Delta VEH and/or Delta cytokine is <10% LDH) | 0 | −19.7 | −3.4 | −4.0 | – | –
4 | O=C1CC2(CCCC2)CC(=O)N1CCCCN1CCN(c2ncccn2)CC1 [Buspirone] | 0 (0 if Delta VEH and/or Delta cytokine is <10% LDH) | 0 | 0 | 0 | – | – | –
5 | CN(C)CCCN1c2ccccc2Sc2ccc(Cl)cc21 [Chlorpromazine] | 1 (1 if both Delta VEH and Delta cytokine are ≥10% LDH) | −10.1 | −12.6 | −7.6 | −5.3 | – | –
6 | O=C(O)[C@H]1/C(=C/CO)O[C@@H]2CC(=O)N21 [Clavulanate] | 0 (0 if Delta VEH and/or Delta cytokine is <10% LDH) | 0 | 0 | −8.2 | −16.1 | – | –
7 | O=C(O)Cc1ccccc1Nc1c(Cl)cccc1Cl [Diclofenac] | – | 0 | 0 | −12.5 | – | 0 (key: 0 if Delta VEH and/or Delta cytokine is <10% LDH; 1 if both Delta VEH and Delta cytokine are ≥10% LDH) | –
8 | COc1cccc2c1C(=O)c1c(O)c3c(c(O)c1C2=O)C[C@@](O)(C(=O)CO)C[C@@H]3O[C@H]1C[C@H](N)[C@H](O)[C@H](C)O1 [Doxorubicin] | 0 (0 if Delta VEH and/or Delta cytokine is <10% LDH) | −2.0 | −1.4 | −1.5 | – | – | –
9 | Cc1onc(-c2c(F)cccc2Cl)c1C(=O)N[C@@H]1C(=O)N2[C@@H]1SC(C)(C)[C@@H]2C(=O)O [Flucloxacillin] | 1 (1 if both Delta VEH and Delta cytokine are ≥10% LDH) | 0 | −5.0 | 0 | 0 | – | –
10 | CC(C)Cc1ccc(C(C)C(=O)O)cc1 (stereo not shown) [Ibuprofen] | 1 (1 if both Delta VEH and Delta cytokine are ≥10% LDH) | −6.1 | −5.5 | −2.2 | – | – | –
11 | CC(=O)[C@]1(O)Cc2c(O)c3c(c(O)c2[C@@H](O[C@H]2C[C@H](N)[C@H](O)[C@H](C)O2)C1)C(=O)c1ccccc1C3=O [Idarubicin] | 0 (0 if Delta VEH and/or Delta cytokine is <10% LDH) | 0 | 0 | 0 | 0 | – | –
12 | NNC(=O)c1ccncc1 [Isoniazid] | 0 (0 if Delta VEH and/or Delta cytokine is <10% LDH) | −32.3 | −43.4 | −3.1 | −4.7 | – | –
13 | COc1ccc2cc([C@H](C)C(=O)O)ccc2c1 [Naproxen] | 0 (0 if Delta VEH and/or Delta cytokine is <10% LDH) | −7.3 | −8.3 | −6.6 | – | – | –
14 | CS(=O)(=O)Nc1ccc([N+](=O)[O-])cc1Oc1ccccc1 [Nimesulide] | – | 0 | 0 | −14.9 | – | 0 (key: 0 if Delta VEH and/or Delta cytokine is <10% LDH; 1 if both Delta VEH and Delta cytokine are ≥10% LDH) | −15.2
15 | CC(CN1c2ccccc2Sc2ccccc21)N(C)C (stereo not shown) [Promethazine] | 0 (0 if Delta VEH and/or Delta cytokine is <10% LDH) | 0 | 0 | 0 | 0 | – | –
16 | CS(=O)(=O)c1ccc(C2=C(c3ccccc3)C(=O)OC2)cc1 [Rofecoxib] | 0 (0 if Delta VEH and/or Delta cytokine is <10% LDH) | 0 | 0 | 0 | 0 | – | –
17 | CN[C@H]1CC[C@@H](c2ccc(Cl)c(Cl)c2)c2ccccc21 [Sertraline] | 1 (1 if both Delta VEH and Delta cytokine are ≥10% LDH) | 0 | 0 | 0 | 0 | – | –
18 | CC[C@H]1OC(=O)[C@H](C)C(=O)[C@H](C)[C@@H](O[C@@H]2O[C@H](C)C[C@H](N(C)C)[C@H]2O)[C@](C)(OC)C[C@@H](C)C(=O)[C@H](C)[C@H]2N(CCCCn3cnc(-c4cccnc4)c3)C(=O)O[C@]12C [Telithromycin] | 1 (1 if both Delta VEH and Delta cytokine are ≥10% LDH) | −4.2 | −4.0 | −3.1 | – | – | –
19 | N[C@@H]1[C@H]2CN(c3nc4c(cc3F)c(=O)c(C(=O)O)cn4-c3ccc(F)cc3F)C[C@@H]12 [Trovafloxacin] | 0 (0 if Delta VEH and/or Delta cytokine is <10% LDH) | −1.9 | −1.4 | −1.8 | – | – | –
